Results reported in article PMC8190130.
These are yes or no findings as the source states them, for the method shown. In cells and extracts the contact can be indirect. Some binding calls cover weakened binding; strength is not graded here. Tags and fused reporters may be left off the sequences shown.

By UniProt entry, the sequences of proteins in these tests, tags left out.
UniProt Q92783: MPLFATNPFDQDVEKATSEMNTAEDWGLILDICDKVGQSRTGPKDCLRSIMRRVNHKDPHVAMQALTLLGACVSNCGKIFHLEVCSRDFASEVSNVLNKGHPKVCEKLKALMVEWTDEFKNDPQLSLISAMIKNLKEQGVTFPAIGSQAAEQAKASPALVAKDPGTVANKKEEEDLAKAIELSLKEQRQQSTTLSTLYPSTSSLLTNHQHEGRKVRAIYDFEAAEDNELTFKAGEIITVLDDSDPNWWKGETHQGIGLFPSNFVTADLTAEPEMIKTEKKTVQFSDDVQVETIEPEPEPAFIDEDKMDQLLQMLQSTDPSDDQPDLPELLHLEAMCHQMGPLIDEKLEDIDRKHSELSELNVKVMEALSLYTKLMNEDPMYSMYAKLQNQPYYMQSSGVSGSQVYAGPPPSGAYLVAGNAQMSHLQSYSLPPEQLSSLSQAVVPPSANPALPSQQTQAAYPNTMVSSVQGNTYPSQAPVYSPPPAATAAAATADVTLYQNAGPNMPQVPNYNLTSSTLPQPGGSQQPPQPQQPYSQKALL

Target: T1, STAMBP (human) (UniProt O95630)
T1 sequence: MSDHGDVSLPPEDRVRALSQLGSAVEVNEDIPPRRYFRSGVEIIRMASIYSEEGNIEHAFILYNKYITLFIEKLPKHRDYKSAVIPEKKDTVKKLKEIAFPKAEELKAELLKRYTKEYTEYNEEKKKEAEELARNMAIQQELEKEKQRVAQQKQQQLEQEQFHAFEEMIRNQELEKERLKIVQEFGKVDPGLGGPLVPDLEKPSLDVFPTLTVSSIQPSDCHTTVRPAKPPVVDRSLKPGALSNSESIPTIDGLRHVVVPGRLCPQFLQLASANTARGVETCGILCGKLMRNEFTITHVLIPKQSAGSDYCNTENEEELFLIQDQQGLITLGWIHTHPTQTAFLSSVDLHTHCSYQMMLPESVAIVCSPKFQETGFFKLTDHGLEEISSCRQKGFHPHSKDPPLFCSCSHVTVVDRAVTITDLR
Experiment: co-IP; STAMBP complex from H1299 cells probed for STAM and EGFR; method and conditions only in Supplementary figure 6 (not shown)

binding: binds
Substance: STAM (from UniProt Q92783 1-540)
